# Source: the supplement of paper PMC10032668
# Protein sequences, listed by entry. Tags and fused reporters are not part of them.
# AHSA1, O95433, UniProt O95433, whole entry: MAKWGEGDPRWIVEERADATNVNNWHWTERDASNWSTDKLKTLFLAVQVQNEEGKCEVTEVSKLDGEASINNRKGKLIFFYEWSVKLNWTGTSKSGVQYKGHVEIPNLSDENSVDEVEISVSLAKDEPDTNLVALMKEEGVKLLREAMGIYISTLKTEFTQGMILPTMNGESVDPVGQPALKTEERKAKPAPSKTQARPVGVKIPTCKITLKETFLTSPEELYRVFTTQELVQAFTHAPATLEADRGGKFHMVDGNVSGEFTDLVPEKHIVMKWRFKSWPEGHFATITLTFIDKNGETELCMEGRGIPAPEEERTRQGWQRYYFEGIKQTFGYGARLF
# AP2A2, O94973, UniProt O94973, whole entry: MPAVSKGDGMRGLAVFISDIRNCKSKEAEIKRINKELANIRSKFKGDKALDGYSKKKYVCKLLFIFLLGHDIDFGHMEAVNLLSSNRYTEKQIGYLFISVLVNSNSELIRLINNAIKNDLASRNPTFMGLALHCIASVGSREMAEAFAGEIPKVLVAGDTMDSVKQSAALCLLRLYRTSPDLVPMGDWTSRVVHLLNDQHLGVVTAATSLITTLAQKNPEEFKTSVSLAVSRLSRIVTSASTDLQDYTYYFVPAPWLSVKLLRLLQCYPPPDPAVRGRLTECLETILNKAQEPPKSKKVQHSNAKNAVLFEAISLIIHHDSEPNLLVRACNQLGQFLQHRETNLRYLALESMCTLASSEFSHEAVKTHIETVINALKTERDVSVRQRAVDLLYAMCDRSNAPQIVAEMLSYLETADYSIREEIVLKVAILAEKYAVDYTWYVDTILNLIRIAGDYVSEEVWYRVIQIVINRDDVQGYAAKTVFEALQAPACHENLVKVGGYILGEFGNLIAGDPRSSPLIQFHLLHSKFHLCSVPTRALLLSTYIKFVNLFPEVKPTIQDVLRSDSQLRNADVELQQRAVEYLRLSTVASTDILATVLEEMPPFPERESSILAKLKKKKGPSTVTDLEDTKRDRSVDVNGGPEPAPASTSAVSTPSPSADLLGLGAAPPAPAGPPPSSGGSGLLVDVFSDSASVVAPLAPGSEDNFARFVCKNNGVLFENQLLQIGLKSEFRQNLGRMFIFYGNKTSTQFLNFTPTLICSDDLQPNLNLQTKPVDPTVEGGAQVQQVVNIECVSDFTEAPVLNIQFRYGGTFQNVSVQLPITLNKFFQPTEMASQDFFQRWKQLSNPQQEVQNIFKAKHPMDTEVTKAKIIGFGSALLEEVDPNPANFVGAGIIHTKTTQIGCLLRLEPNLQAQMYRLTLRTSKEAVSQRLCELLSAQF
# ATXN2, Q99700, UniProt Q99700, whole entry: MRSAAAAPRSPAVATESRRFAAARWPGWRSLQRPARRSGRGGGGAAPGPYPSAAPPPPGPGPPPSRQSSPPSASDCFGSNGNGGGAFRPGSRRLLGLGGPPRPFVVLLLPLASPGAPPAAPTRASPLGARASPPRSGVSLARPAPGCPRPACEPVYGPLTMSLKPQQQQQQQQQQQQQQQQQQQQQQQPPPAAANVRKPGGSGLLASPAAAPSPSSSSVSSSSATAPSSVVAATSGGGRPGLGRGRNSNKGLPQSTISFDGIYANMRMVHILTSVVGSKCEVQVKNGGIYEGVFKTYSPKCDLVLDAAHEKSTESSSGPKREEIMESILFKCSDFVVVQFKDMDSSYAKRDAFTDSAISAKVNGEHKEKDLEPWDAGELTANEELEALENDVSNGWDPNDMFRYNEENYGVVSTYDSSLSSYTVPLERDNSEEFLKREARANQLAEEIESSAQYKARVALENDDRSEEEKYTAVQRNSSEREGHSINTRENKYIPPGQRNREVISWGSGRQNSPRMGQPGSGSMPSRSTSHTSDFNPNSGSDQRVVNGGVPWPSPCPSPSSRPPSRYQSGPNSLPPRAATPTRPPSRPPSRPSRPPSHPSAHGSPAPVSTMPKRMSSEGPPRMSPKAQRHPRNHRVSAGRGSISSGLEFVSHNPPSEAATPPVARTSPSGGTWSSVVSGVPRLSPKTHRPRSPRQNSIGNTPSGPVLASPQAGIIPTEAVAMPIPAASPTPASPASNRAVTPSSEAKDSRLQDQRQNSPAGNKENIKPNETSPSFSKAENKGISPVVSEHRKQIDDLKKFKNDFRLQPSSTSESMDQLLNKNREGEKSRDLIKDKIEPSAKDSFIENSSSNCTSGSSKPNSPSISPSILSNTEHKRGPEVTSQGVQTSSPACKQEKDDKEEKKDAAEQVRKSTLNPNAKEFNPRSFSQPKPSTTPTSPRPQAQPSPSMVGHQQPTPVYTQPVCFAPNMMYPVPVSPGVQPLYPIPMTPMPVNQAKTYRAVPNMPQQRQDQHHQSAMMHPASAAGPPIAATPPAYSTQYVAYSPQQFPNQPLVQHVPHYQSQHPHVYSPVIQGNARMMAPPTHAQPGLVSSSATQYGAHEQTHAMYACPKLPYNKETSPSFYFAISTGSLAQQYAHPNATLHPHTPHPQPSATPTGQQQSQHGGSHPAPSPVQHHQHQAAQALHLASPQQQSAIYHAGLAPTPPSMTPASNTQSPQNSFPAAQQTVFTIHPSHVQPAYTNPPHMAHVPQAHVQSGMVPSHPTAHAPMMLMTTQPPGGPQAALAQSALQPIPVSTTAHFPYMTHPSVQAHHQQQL
# CHMP2B, Q9UQN3, UniProt Q9UQN3, whole entry: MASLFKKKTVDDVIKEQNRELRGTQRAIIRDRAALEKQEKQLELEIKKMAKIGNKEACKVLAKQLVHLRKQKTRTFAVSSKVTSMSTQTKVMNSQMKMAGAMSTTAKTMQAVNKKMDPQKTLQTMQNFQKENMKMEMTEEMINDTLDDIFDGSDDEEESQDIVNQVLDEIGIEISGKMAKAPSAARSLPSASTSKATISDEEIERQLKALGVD
# CKS1B, P61024, UniProt P61024, whole entry: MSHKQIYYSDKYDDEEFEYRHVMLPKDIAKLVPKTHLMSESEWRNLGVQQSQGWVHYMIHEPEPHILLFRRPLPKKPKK
# CKS2, P33552, UniProt P33552, whole entry: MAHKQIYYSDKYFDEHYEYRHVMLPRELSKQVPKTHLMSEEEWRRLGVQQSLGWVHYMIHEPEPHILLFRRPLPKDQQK
# COX6B1, P14854, UniProt P14854, whole entry: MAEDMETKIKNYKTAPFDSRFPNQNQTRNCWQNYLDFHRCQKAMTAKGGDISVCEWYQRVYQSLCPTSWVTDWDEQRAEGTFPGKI
# DNAJB1, P25685, UniProt P25685, whole entry: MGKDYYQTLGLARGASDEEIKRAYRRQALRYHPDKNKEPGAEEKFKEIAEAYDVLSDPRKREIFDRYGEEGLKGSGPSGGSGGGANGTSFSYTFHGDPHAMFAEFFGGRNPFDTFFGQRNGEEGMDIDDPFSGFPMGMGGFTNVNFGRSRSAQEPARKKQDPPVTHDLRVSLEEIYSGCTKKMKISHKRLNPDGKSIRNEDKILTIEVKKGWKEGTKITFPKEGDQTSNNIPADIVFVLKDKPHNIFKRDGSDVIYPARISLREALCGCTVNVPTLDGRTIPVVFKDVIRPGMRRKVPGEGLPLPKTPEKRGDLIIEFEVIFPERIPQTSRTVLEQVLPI
# EIF1, P41567, UniProt P41567, whole entry: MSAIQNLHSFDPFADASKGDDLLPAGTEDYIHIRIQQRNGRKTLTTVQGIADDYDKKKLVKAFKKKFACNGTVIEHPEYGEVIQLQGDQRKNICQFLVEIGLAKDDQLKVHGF
# This is one part of the list. The list holds hits alone, and they repeat only in part.
# Legend:
# Assay in all cases: PRISMA enrichment of interactor (LFQ) in peptide spot vs all other peptide spots (log2 fold change); higher = stronger / more specific binding of the interactor to the peptide
# [1] = molecular target: ACAA1, P09110
# Protocol: (§1)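 PRISMA: 221 full-length sORF-encoded peptides (3-15 aa), plus SOS1/GLUT1 control peptides, were spot-synthesized on cellulose membranes in triplicate. Membranes were incubated with HEK293T lysate, and bound proteins were identified by LC-MS/MS with LFQ. Enrichment is the log2 fold change versus all other peptide spots; only significant interactors are listed (cutoff c=6, x0=2.8).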
# [2] = molecular target: ACOT13, Q9NPJ3
# Protocol: as §1
# [3] = molecular target: ACOT7, O00154
# Protocol: as §1
# [4] = molecular target: AHSA1, O95433
# Protocol: as §1
# [5] = molecular target: ALKBH5, Q6P6C2
# Protocol: as §1
# [6] = molecular target: ALYREF, Q86V81
# Protocol: as §1
# [7] = molecular target: ANXA7, P20073
# Protocol: as §1
# [8] = molecular target: AP1B1, Q10567
# Protocol: as §1
# [9] = molecular target: AP2A1, O95782
# Protocol: as §1
# [10] = molecular target: AP2A2, O94973
# Protocol: as §1
# [11] = molecular target: AP2B1, P63010
# Protocol: as §1
# [12] = molecular target: AP2M1, Q96CW1
# Protocol: as §1
# [13] = molecular target: AP2S1, P53680
# Protocol: as §1
# [14] = molecular target: ARCN1, P48444
# Protocol: as §1
# [15] = molecular target: ATXN2, Q99700
# Protocol: as §1
# [16] = molecular target: ATXN2L, Q8WWM7
# Protocol: as §1
# [17] = molecular target: BAIAP2, Q9UQB8
# Protocol: as §1
# [18] = molecular target: BOLA3, Q53S33
# Protocol: as §1
# [19] = molecular target: C19orf53, Q9UNZ5
# Protocol: as §1
# [20] = molecular target: C1orf131, Q8NDD1
# Protocol: as §1
# [21] = molecular target: C20orf27, Q9GZN8
# Protocol: as §1
# [22] = molecular target: CC2D1A, Q6P1N0
# Protocol: as §1
# [23] = molecular target: CCDC137, Q6PK04
# Protocol: as §1
# [24] = molecular target: CCDC58, Q4VC31
# Protocol: as §1
# [25] = molecular target: CCDC59, Q9P031
# Protocol: as §1
# [26] = molecular target: CDC73, Q6P1J9
# Protocol: as §1
# [27] = molecular target: CGGBP1, Q9UFW8
# Protocol: as §1
# [28] = molecular target: CHCHD7, Q9BUK0
# Protocol: as §1
# [29] = molecular target: CHMP2A, O43633
# Protocol: as §1
# [30] = molecular target: CHMP2B, Q9UQN3
# Protocol: as §1
# [31] = molecular target: CHTOP, Q9Y3Y2
# Protocol: as §1
# [32] = molecular target: CKS1B, P61024
# Protocol: as §1
# [33] = molecular target: CKS2, P33552
# Protocol: as §1
# [34] = molecular target: COA7, Q96BR5
# Protocol: as §1
# [35] = molecular target: COX6B1, P14854
# Protocol: as §1
# [36] = molecular target: CPSF7, Q8N684
# Protocol: as §1
# [37] = molecular target: CSNK1A1, P48729
# Protocol: as §1
# [38] = molecular target: CSNK1E, P49674
# Protocol: as §1
# [39] = molecular target: CSRP2, Q16527
# Protocol: as §1
# [40] = molecular target: CSTF3, Q12996
# Protocol: as §1
# [41] = molecular target: CXorf56, Q9H5V9
# Protocol: as §1
# [42] = molecular target: DAZAP1, Q96EP5
# Protocol: as §1
# [43] = molecular target: DCXR, Q7Z4W1
# Protocol: as §1
# [44] = molecular target: DDX1, Q92499
# Protocol: as §1
# [45] = molecular target: DDX47, Q9H0S4
# Protocol: as §1
# [46] = molecular target: DDX49, Q9Y6V7
# Protocol: as §1
# [47] = molecular target: DDX6, P26196
# Protocol: as §1
# [48] = molecular target: DECR2, Q9NUI1
# Protocol: as §1
# [49] = molecular target: DERPC, P0CG12
# Protocol: as §1
# [50] = molecular target: DNAJA3, Q96EY1
# Protocol: as §1
# [51] = molecular target: DNAJB1, P25685
# Protocol: as §1
# [52] = molecular target: DNAJB12, Q9NXW2
# Protocol: as §1
# [53] = molecular target: DNAJC8, O75937
# Protocol: as §1
# [54] = molecular target: EDF1, O60869
# Protocol: as §1
# [55] = molecular target: EHHADH, Q08426
# Protocol: as §1
# [56] = molecular target: EIF1, P41567
# Protocol: as §1
# [57] = molecular target: EIF4H, Q15056
# Protocol: as §1
# [58] = molecular target: EMG1, Q92979
# Protocol: as §1
# [59] = molecular target: EWSR1, Q01844
# Protocol: as §1
# [60] = molecular target: FAM136A, Q96C01
# Protocol: as §1
binder,measurement,setting,value
MMFWTEF [SH3D19],PRISMA enrichment of interactor (log2),[1],3.94
same,PRISMA enrichment of interactor (log2),[2],5.38
same,PRISMA enrichment of interactor (log2),[3],5.17
same,PRISMA enrichment of interactor (log2),[4],5.11
same,PRISMA enrichment of interactor (log2),[5],4.87
same,PRISMA enrichment of interactor (log2),[6],4.97
same,PRISMA enrichment of interactor (log2),[7],4.3
same,PRISMA enrichment of interactor (log2),[8],5.74
same,PRISMA enrichment of interactor (log2),[9],8.94
same,PRISMA enrichment of interactor (log2),[10],8.43
same,PRISMA enrichment of interactor (log2),[11],8.46
same,PRISMA enrichment of interactor (log2),[12],7.65
same,PRISMA enrichment of interactor (log2),[13],5.87
same,PRISMA enrichment of interactor (log2),[14],5.75
same,PRISMA enrichment of interactor (log2),[15],5.05
same,PRISMA enrichment of interactor (log2),[16],5.79
same,PRISMA enrichment of interactor (log2),[17],5.31
same,PRISMA enrichment of interactor (log2),[18],4.96
same,PRISMA enrichment of interactor (log2),[19],6.54
same,PRISMA enrichment of interactor (log2),[20],4.29
same,PRISMA enrichment of interactor (log2),[21],3.74
same,PRISMA enrichment of interactor (log2),[22],7.58
same,PRISMA enrichment of interactor (log2),[23],5.55
same,PRISMA enrichment of interactor (log2),[24],4.96
same,PRISMA enrichment of interactor (log2),[25],4.57
same,PRISMA enrichment of interactor (log2),[26],5.36
same,PRISMA enrichment of interactor (log2),[27],4.62
same,PRISMA enrichment of interactor (log2),[28],4.27
same,PRISMA enrichment of interactor (log2),[29],7.65
same,PRISMA enrichment of interactor (log2),[30],6.28
same,PRISMA enrichment of interactor (log2),[31],5.31
same,PRISMA enrichment of interactor (log2),[32],4.86
same,PRISMA enrichment of interactor (log2),[33],5.31
same,PRISMA enrichment of interactor (log2),[34],4.69
same,PRISMA enrichment of interactor (log2),[35],4.93
same,PRISMA enrichment of interactor (log2),[36],6.14
same,PRISMA enrichment of interactor (log2),[37],6.37
same,PRISMA enrichment of interactor (log2),[38],7.21
same,PRISMA enrichment of interactor (log2),[39],7.51
same,PRISMA enrichment of interactor (log2),[40],3.87
same,PRISMA enrichment of interactor (log2),[41],6.97
same,PRISMA enrichment of interactor (log2),[42],7.9
same,PRISMA enrichment of interactor (log2),[43],4.52
same,PRISMA enrichment of interactor (log2),[44],5.54
same,PRISMA enrichment of interactor (log2),[45],5.06
same,PRISMA enrichment of interactor (log2),[46],4.55
same,PRISMA enrichment of interactor (log2),[47],5.01
same,PRISMA enrichment of interactor (log2),[48],5.56
same,PRISMA enrichment of interactor (log2),[49],7.57
same,PRISMA enrichment of interactor (log2),[50],5.34
same,PRISMA enrichment of interactor (log2),[51],5.41
same,PRISMA enrichment of interactor (log2),[52],3.84
same,PRISMA enrichment of interactor (log2),[53],4.81
same,PRISMA enrichment of interactor (log2),[54],5.19
same,PRISMA enrichment of interactor (log2),[55],4.97
same,PRISMA enrichment of interactor (log2),[56],4.73
same,PRISMA enrichment of interactor (log2),[57],6.11
same,PRISMA enrichment of interactor (log2),[58],5.96
same,PRISMA enrichment of interactor (log2),[59],5.29
same,PRISMA enrichment of interactor (log2),[60],4.32

# Retrieved one by one from the list above (five):
binder,measurement,setting,value
MMFWTEF [SH3D19],PRISMA enrichment of interactor (log2),[48],5.56
same,PRISMA enrichment of interactor (log2),[41],6.97
same,PRISMA enrichment of interactor (log2),[5],4.87
same,PRISMA enrichment of interactor (log2),[21],3.74
same,PRISMA enrichment of interactor (log2),[22],7.58
